# Measured values published in the supplement of paper PMC12889115.
# The list shows a part of the results. Values are raw readings; no control value is given beside them.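 Primary screen: polymyxin B was added at a level permeabilizing Salmonella outer membranes while sparing inner membranes. DMSO wells, both with and without polymyxin B, established maximum growth. Plate-to-plate variation meant each plate was ranked on its own, and the lowest-OD600 compounds were selected as hits.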
# System: Salmonella enterica serovar Typhimurium SL1344
# Assay: bacterial growth OD600 after 18 h with compound and polymyxin B; higher = more bacterial growth (less inhibition)
# Conditions: 50 µM, Mueller-Hinton broth
structure (smiles),measurement,setting,value
COCc1ccc(C(=O)NCc2cccnc2N2CCOCC2)o1,bacterial growth OD600,polymyxin B 1 µg/mL,1.05
CC(C)c1cc(CN2CCN(CC3CCCCC3)C(CCO)C2)n[nH]1 (stereo not given),bacterial growth OD600,polymyxin B 1 µg/mL,0.954
CC(C)C(=O)NC1CC(=O)N(CCc2ccc(F)cc2)C1 (stereo not given),bacterial growth OD600,polymyxin B 1 µg/mL,1.04
COc1ccc(Cl)cc1NC(=O)CCC1CCCN(C(=O)C2=C(C)OCCO2)C1 (stereo not given),bacterial growth OD600,polymyxin B 1 µg/mL,0.837
CCNC(=O)c1cc(CN(C)Cc2ccccc2)on1,bacterial growth OD600,polymyxin B 1 µg/mL,1.23
Cc1ccn(CC(=O)NCCN2Cc3ccccc3OC(c3ccccc3F)C2)n1 (stereo not given),bacterial growth OD600,polymyxin B 0.75 µg/mL,0.912
O=C1NCCN(c2nc3nonc3nc2N2CCCCC2)C1Cc1ccccc1 (stereo not given),bacterial growth OD600,polymyxin B 0.75 µg/mL,0.772
COc1ncccc1C(=O)N(C)CC1CCCN(CCc2ccccc2C)C1 (stereo not given),bacterial growth OD600,polymyxin B 1 µg/mL,0.79
COc1ccc(CN(C)CC2CCCN(CCc3ccc(F)cc3)C2)cc1OC (stereo not given),bacterial growth OD600,polymyxin B 1 µg/mL,0.829
Cc1cccc(NC(=O)CCC2CCN(C(=O)CSc3nncn3C)CC2)c1,bacterial growth OD600,polymyxin B 1 µg/mL,0.921
CC1(C)Cc2nc(N3CCC(O)CC3)ncc2C(NC2CCCCC2)C1 (stereo not given),bacterial growth OD600,polymyxin B 0.75 µg/mL,0.93
OC(Cc1ccccc1)c1ccc2c(c1)CN(Cc1ccccn1)CCO2 (stereo not given),bacterial growth OD600,polymyxin B 0.75 µg/mL,0.792
Cc1ccn(CCC(=O)N2CCC3(CC2)CC3C(=O)NCCC(c2ccccc2)c2ccccc2)n1 (stereo not given),bacterial growth OD600,polymyxin B 0.75 µg/mL,0.007
COC(=O)c1cc(CNC(=O)c2ccccn2)cc(NS(=O)(=O)c2cccc(C(F)(F)F)c2)c1,bacterial growth OD600,polymyxin B 0.75 µg/mL,0.62
O=C(C1CC1)N1CCCC(CCc2c(F)cccc2F)C1 (stereo not given),bacterial growth OD600,polymyxin B 0.75 µg/mL,0.33
CCOC(=O)C1(CC2CCCCO2)CCN(S(=O)(=O)c2ccc(F)cc2Cl)CC1 (stereo not given),bacterial growth OD600,polymyxin B 0.75 µg/mL,0.609
CC(NC1CCN(c2ccc(C(=O)N(C)C)cc2)CC1)c1cccs1 (stereo not given),bacterial growth OD600,polymyxin B 0.75 µg/mL,0.829
Cc1ccccc1N1CCN(c2ncccc2CNC(=O)c2ccoc2C)CC1,bacterial growth OD600,polymyxin B 1 µg/mL,0.102
O=C(Cn1cccn1)N(CC1CCN(Cc2ccccc2F)CC1)CC1CCCO1 (stereo not given),bacterial growth OD600,polymyxin B 0.75 µg/mL,0.795
COc1ccccc1CCN1CCC(CN(C)C(=O)Cc2ccccc2C)CC1,bacterial growth OD600,polymyxin B 1 µg/mL,0.983

# 2 compounds drawn at random from the list so far, as already listed:
structure (smiles),measurement,setting,value
O=C(Cn1cccn1)N(CC1CCN(Cc2ccccc2F)CC1)CC1CCCO1 (stereo not given),bacterial growth OD600,polymyxin B 0.75 µg/mL,0.795
Cc1ccccc1N1CCN(c2ncccc2CNC(=O)c2ccoc2C)CC1,bacterial growth OD600,polymyxin B 1 µg/mL,0.102
